# Measurements as given in patent US20250387458A1, “COACTIVE COMBINATIONS OF ANTIMICROBIALS WITH DISPERSINB” (KANE BIOTECH INC., priority 2020, published 2025).
# Assays:
# [1] = test system: S. epidermidis biofilm; assay: Compatibility between antimicrobials or antibiotics and DspB, biofilm dispersal assay in buffer (Method 3); type: cell-based, Staphylococcus epidermidis
# Method: Method 3: Method to Test Compatibility Between Antimicrobials or Antibiotics and DspB Using Biofilm Dispersal Assay
# S. epidermidis biofilm was grown in 96-well plate and washed three times using sterile water to remove planktonic cells. Antimicrobials or antibiotics and DspB formulations were prepared in 50 mM phosphate or citrate buffer and stored at 37° C. for 2 h and used for treating biofilm at 0 and 2 h. Biofilm was treated using antimicrobials or antibiotics and DspB formulations for 10 min. After treatments, solutions were removed and washed 3 times to remove dispersed biofilm. Remaining biofilms in 96-well plates were stained using Crystal violet, unbound crystal violet was removed by washing the wells with sterile water, the biofilm bound crystal violet was eluted using 33% acetic acid, and the absorbance at 620 nm was taken using a microwell plate reader. Percent biofilm removal was calculated. Data was analyzed using ANOVA and Tukey's test.
# [2] = test system: S. epidermidis biofilm; assay: Biofilm dispersal by DspB gel formulations (Method 5); type: cell-based, Staphylococcus epidermidis
# Method: Method 5: Method to Test Biofilm Dispersal by DspB Gel Formulations
# S. epidermidis biofilm was grown in 96-well plate and washed three times to remove planktonic cells. Then biofilm was treated using different DspB formulations appropriate treatment duration (10 min-1 h). After treatments, gels were removed and washed 3 times with sterile distilled water to remove excess gel and dispersed biofilm. Remaining biofilms in 96-well plates were stained using Crystal violet and unbound crystal violet was removed by washing the wells with sterile water, the biofilm bound crystal violet was eluted using 33% acetic acid, and the absorbance at 620 nm was taken using a microwell plate reader.
# Gels containing DspB and selected concentrations of antimicrobials were formulated in 50 mM phosphate buffer or citrate buffer containing 16% PF127. DspB gel and antimicrobial gel were mixed together and incubated at 37° C. for 2 h. Biofilm dispersal was performed at 0 and 2 h using biofilm dispersal assay (Method 5). Blank gel, DspB gel and antimicrobial gels were included as controls.
smiles,measurement,setting,value
CCCCCCCCCCCCCCCC[n+]1ccccc1.[Cl-] [Cetylpyridinium chloride],"Synergy or compatibility with DspB, M: microbiological (biofilm dispersal assay; biofilm inactivation not tested)",[1],M: compatible
same,Biofilm dispersal of gel containing DspB and antimicrobial compared with gel containing DspB alone,[2],similar
same,"Synergy or compatibility with DspB, M: microbiological (biofilm dispersal assay; biofilm inactivation not tested)",[2],M: compatible
